# In PubChem BioAssay AID2685 (National Center for Advancing Translational Sciences (NCATS), 2010):
# About 2,100 (0.66%) of roughly 320,000 compounds were called active. This list was built around the results that the source calls inconclusive (neither active nor inactive); the mix of calls is not that of the screen. Calls follow the shape of the dose curve; as a rule, active = well fitted inhibition curve with a large enough effect in the signal ratio, with a control signal flat (not every such curve was filed as active); inconclusive = small, poorly fitted or top-dose-only effect, or effect the other way, or a change in a side signal; inactive = flat fitted curve, though single readings scatter; the % refers to the signal ratio. Potencies of inconclusive entries are doubtful fits and often do not repeat.
# Experiment: qHTS Assay for Lipid Storage Modulators in Drosophila S3 Cells
# Conditions: BODIPY lipid droplet fluorescence, 18-24 h, cells fed with added oleic acid; lipid storage change, negative = inhibition: at 46.1 µM (top of the series) unless noted
# How it was run: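 Drosophila S3 cells loaded with oleic acid (400 uM, as added) and compounds at several concentrations; lipid droplets imaged by 488-nm laser-scanning cytometry, 500–530 nm intensity and object ratio to cell channel. Percent activity normalized to 20 uM Triacsin C.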
# % is scaled to controls: 0 for no effect and ±100 for the full control effect; potency is read from the fitted curve at half-maximal effect.
SMILES,Potency,"lipid storage change, negative = inhibition",outcome
CC12CCC(C(=O)NNc3ccc([N+](=O)[O-])cc3)(OC1=O)C2(C)C (centres undefined),"inconclusive: 0.517 µM [activator, single point]",,
COc1cc(OC)cc(-c2nc(-c3ccc(Br)cc3)no2)c1,,inconclusive: -49.9%,
Cc1ccc(-n2c(SCC(=O)Nc3ccc(C(=O)O)cc3)nnc2-c2ccncc2)cc1,,inconclusive: -42.6%,
COC(=O)c1ccc(CSc2nc3sc4c(c3c(=O)n2C)CCCC4)o1,,inconclusive: -3.75%,
CCc1ccc(NC(=O)N(Cc2ccco2)C(C)c2cccs2)cc1 (centres undefined),,inconclusive: -18%,
CCCCCC(C)n1[nH]c(=O)c2c(C)cc(C)nc21 (centres undefined),,inconclusive: 48.6%,
CN(C)S(=O)(=O)NCc1ccc2c(c1)OCO2,"inconclusive: 29.1 µM [falling, single point]",,
c1ccc(-c2nnsc2Sc2ccccn2)cc1,,inconclusive: 26.8%,
N#CC(C#N)=c1ccc2c(c1)N1C(c3ccccc3)=CC(c3ccccc3)C3CCCCC31N=2 (centres undefined),"inconclusive: 0.461 µM [falling, full curve, poor fit]",,
CC1=C(C(=O)OCc2ccccc2)C(c2cccc(F)c2)NC(=O)N1 (centres undefined),,inconclusive: -31.6%,
COC(=O)N/N=C/c1ccccc1Cl,,inconclusive: -2.68%,
COc1ccc(Cl)cc1NC(=O)CN(C)S(=O)(=O)c1cccs1,"inconclusive: 10.3 µM [activator, partial curve]",,
CC(=O)c1cccc(OCC(=O)N(Cc2ccco2)c2c(N)n(Cc3ccccc3)c(=O)[nH]c2=O)c1,,inconclusive: -6.64%,
Cc1noc(C)c1C(=O)OC(C)C(=O)Nc1ccc(C(N)=O)cc1 (centres undefined),"inconclusive: 6.51 µM [falling, single point]",,
O=C(COC(=O)/C=C/c1ccc(F)cc1)NCc1cccs1,,inconclusive: 80.4%,
CCCN(CCC)S(=O)(=O)c1ccc(NS(C)(=O)=O)cc1,,inconclusive: -38.2%,
CCOC(=O)c1c(C)nc2c(c1C)/C(=N/O)CC(C)(C)C2,"inconclusive: 29.1 µM [activator, single point]",,
COc1ccccc1C(=O)Nc1ncc2c(n1)CC(c1ccco1)CC2=O (centres undefined),"inconclusive: 6.51 µM [activator, single point]",,
NC1=NC(=O)/C(=C/c2ccccc2OS(=O)(=O)c2ccccc2)S1,"inconclusive: 20.6 µM [activator, single point]",,
CCOc1ccc(S(=O)(=O)N2CCCC(C(=O)NCc3cccnc3)C2)cc1Cl (centres undefined),,inconclusive: 36.5%,
CC(C)(C)c1ccc(O)c(N)c1,,inconclusive: -10.4%,
Cc1nc(Nc2ccc3c(c2)OCCO3)c2c(C)c(C)sc2n1,,inconclusive: 12.2%,
O=C(c1cccc(-c2ccc(O)cc2)c1)N1CCN(c2ccc(F)cc2)CC1,"inconclusive: 0.082 µM [activator, partial curve, poor fit]",,
CCn1c(CN2CCN(Cc3ccc(C)cc3)C(CCO)C2)nc2ccccc21 (centres undefined),,inconclusive: 21.2%,
CN1CCN(C(=O)c2cnn(-c3ccccc3)c2NC(=O)c2ccccc2Cl)CC1,,inconclusive: -10.1%,
COc1cccc(CNC(=O)CCNC(=O)c2ccco2)c1,,inconclusive,
Cc1c(C(=O)Nc2ccc3c(c2)OCCO3)cnn1C,,inconclusive: 374%,

# Fetched by structure from the entries so far:
SMILES,Potency,"lipid storage change, negative = inhibition",outcome
Cc1noc(C)c1C(=O)OC(C)C(=O)Nc1ccc(C(N)=O)cc1 (centres undefined),"inconclusive: 6.51 µM [falling, single point]",,
c1ccc(-c2nnsc2Sc2ccccn2)cc1,,inconclusive: 26.8%,
COc1ccccc1C(=O)Nc1ncc2c(n1)CC(c1ccco1)CC2=O (centres undefined),"inconclusive: 6.51 µM [activator, single point]",,
NC1=NC(=O)/C(=C/c2ccccc2OS(=O)(=O)c2ccccc2)S1,"inconclusive: 20.6 µM [activator, single point]",,
COc1ccc(Cl)cc1NC(=O)CN(C)S(=O)(=O)c1cccs1,"inconclusive: 10.3 µM [activator, partial curve]",,

# Following part:

SMILES,Potency,"lipid storage change, negative = inhibition",outcome
FC(F)(F)c1cc(C(F)(F)F)c2ccc(N/N=C/c3ccccc3)nc2n1,,inconclusive: -17%,
CSc1ccccc1NC(=O)CCc1ccccc1,"inconclusive: 6.51 µM [cytotoxic, single point]",,
O=C(CSc1nnc(Cn2c(=O)sc3ccccc32)n1-c1ccccc1)N1CCCC1,,inactive: 4.03%,
CN(C(=O)CSc1nc(N)c2c3c(sc2n1)CSC(C)(C)C3)c1ccccc1,,inconclusive: -25.8%,
Cc1ccc(C)c(N2CCN(CCCNC(=O)Cn3cccc3C(=O)c3ccccc3C)CC2)c1,,inconclusive: -21.1%,
COc1ccccc1CN(C)C(=O)CN1C(=O)c2ccccc2C1=O,,,inactive [at 46.1 µM]
CCOc1cc(S(=O)(=O)NCCCN2CCOCC2)ccc1F,,inconclusive: 1.66%,
O=[N+]([O-])c1ccc2nc(-c3ccccc3[N+](=O)[O-])[nH]c2c1,,inconclusive: -15.7%,
COc1ccc(C(=O)NC(=S)SCC(=O)O)cc1,,inconclusive: -18.7%,
CCc1nnc(NC(=O)C2CC(=O)N(CCc3ccc(F)cc3)C2)s1 (centres undefined),"inconclusive: 25.9 µM [falling, partial curve, poor fit]",,
O=C(CCCN1C(=O)/C(=C/c2ccccc2Cl)SC1=S)NCCCN1CCOCC1,,inactive: -10.8%,
Cc1ccc2oc(C(F)(F)C(F)F)cc(=O)c2c1,,inconclusive: -19.6%,
CCCCCN=CC1=C(O)CC(c2ccccc2)CC1=O (centres undefined),,inactive: -7.93%,
CCCCOC(=O)c1ccc(NS(=O)(=O)c2cc(-c3nnnn3CC)ccc2OC)cc1,,inconclusive: 20.6%,
COc1ccc(NC(=O)C2CCCO2)cc1OC (centres undefined),,inconclusive: -36.6%,
O=C(COC(=O)CC1CC2CCC1C2)Nc1ccc(Cl)c(S(=O)(=O)N2CCOCC2)c1 (centres undefined),"inconclusive: 0.731 µM [falling, full curve]",,
N#Cc1nc(COc2cccc(Cl)c2)oc1N1CCN(c2ccccc2)CC1,"inconclusive: 2.06 µM [activator, partial curve]",,
OC(COC(c1ccc(Cl)cc1)c1ccc(Cl)cc1)CN1CCCC1 (centres undefined),,inconclusive: 55.5%,
C=CC[n+]1c(C)csc1Nc1ccc(C(=O)O)cc1,,inconclusive: 19.4%,
CC(NC(=O)COC(=O)CNC(=O)C1CCCCC1)c1ccccc1 (centres undefined),"inconclusive: 29.1 µM [activator, single point]",,
Cc1cccc(C)c1NC(=S)Nc1ccc(Cl)c(Cl)c1,,inconclusive: -17.4%,
COc1ccc(Br)cc1CNC(=O)C1CCCN(S(=O)(=O)N2CC(C)CC(C)C2)C1 (centres undefined),,inconclusive: 34.3%,
Cc1ccc(S(=O)(=O)CCC(=O)Nc2nc(C(C)(C)C)cs2)cc1,active: 23.1 µM,,
CCN(CC(=O)Nc1ccc(NC(C)=O)cc1)C(=O)c1cc(S(=O)(=O)N2CCCCCC2)ccc1OC,,inconclusive: 38.6%,
CCC(Oc1ccccc1)C(=O)Nc1ccccc1N1CCCCC1 (centres undefined),,inconclusive: 45.2%,
O=C(CCC(=O)OCC(=O)c1cccc([N+](=O)[O-])c1)Nc1cccc(Cl)c1Cl,"inconclusive: 29.1 µM [rising, single point]",,
COc1ccccc1C(=O)Nc1cccc2c1CCCC2,,inconclusive: 2.26%,

SMILES,Potency,"lipid storage change, negative = inhibition",outcome
CCCn1c(SCC(=O)NC(=O)NCc2ccco2)n[nH]c1=O,,inconclusive: 9.54%,
COc1ccccc1NC(=O)C(NC(=O)OC(C)(C)C)C(C)OCc1ccccc1 (centres undefined),,inconclusive: -23.9%,
CN(Cc1ccc(OC(F)F)cc1)C(=O)c1ccc2nccnc2c1,,inconclusive: 52.8%,
CCN(C(=O)c1cccc(NC(=O)c2ccccc2)c1)C1CCCCC1,"inconclusive: 29.1 µM [falling, single point]",,
COC(=O)/C=C1\S/C(=N\N=C\CC(=O)OC)NC1=O,,inconclusive: -27.1%,
O=C(/C=C/c1ccccc1[N+](=O)[O-])N1CCN(C(=O)c2ccco2)CC1,,inconclusive: 36%,
Cc1c(Cl)cccc1NS(=O)(=O)c1ccc(-c2ccc(=O)[nH]n2)o1,"inconclusive: 29.1 µM [falling, single point]",,
COc1cc2c(cc1OC)CN(C(=O)CSc1nc(C)cc(C)c1C#N)CC2,,inconclusive: -16.5%,
CCc1ccc(Nc2n[n+](C)c(-c3ccncc3)s2)cc1,,inconclusive: -32.9%,
Cc1ccc(NS(=O)(=O)c2cc(-c3n[nH]c(=O)c4ccccc34)ccc2C)cc1,,inconclusive: 20.2%,
CCCCN(CC)S(=O)(=O)c1ccc(C(=O)Nc2nnc(COC)o2)cc1,,inconclusive: 37%,
COc1cc(C(=O)NC(C)c2cccc3ccccc23)cc(OC)c1OC (centres undefined),"inconclusive: 29.1 µM [falling, single point]",,
N#C/C(=C\c1ccc(O)c(Br)c1)C(=O)N1CCCCC1,,inconclusive: 6.75%,
CN(C(=O)COC(=O)c1cc2c(s1)CCCCC2)c1ccccc1,,inconclusive: 37.7%,
CC(OC(=O)CCC(=O)c1ccc(F)cc1)C(=O)NC1CCCCC1C (centres undefined),,inconclusive: -8.26%,
CCNc1nc2c(c(=O)[nH]c(=O)n2C)n1CCCc1ccccc1,,inconclusive: -28.1%,
O=C(c1cc2ccccc2o1)N1CCOCC1,"inconclusive: 29.1 µM [falling, single point]",,
CC1=CC(C)(C)n2c(O)c(N=N)c3c(C)c(C)cc1c32,,inconclusive: -22.2%,
Cc1noc(NS(=O)(=O)c2ccc(NC(=O)CS(=O)(=O)c3ccccc3)cc2)c1C,"inconclusive: 16.4 µM [falling, single point]",,
CCOC(=O)C1(Cc2cccc(F)c2)CCN(C(=O)c2ccoc2C)CC1,,inconclusive: 9.5%,
CC(NC(=O)Cc1ccccc1)C(=O)O (centres undefined),"inconclusive: 0.0052 µM [activator, full curve, poor fit]",,
O=C(NCC(=O)N1CCCC(C(F)(F)F)C1)c1ccccc1F (centres undefined),,inconclusive: 30.2%,
O=[N+]([O-])c1ccc(Oc2ccc(S(=O)(=O)Nc3ccccc3)cc2)cc1,"inconclusive: 18.4 µM [falling, single point]",,
O=C(NCCN1CCN(C(=O)c2c(F)cccc2F)CC1)C(=O)Nc1ccc(Cl)cc1,,inconclusive: 475%,
COc1ccccc1N(C(=O)c1snc(C(N)=O)c1N)C(C(=O)NCc1ccccc1)c1ccc(C)o1 (centres undefined),"inconclusive: 25.9 µM [falling, single point]",,
